Data on one compound can be found in US12486290B2, “Isoindolinone and indazole compounds for the degradation of EGFR” (C4 THERAPEUTICS, INC., priority 2019, dated 2025).

By UniProt entry, the sequences of proteins in these tests, tags left out. Residues count along the entry.
UniProt P00533, 25-1210 L858R limits assumed: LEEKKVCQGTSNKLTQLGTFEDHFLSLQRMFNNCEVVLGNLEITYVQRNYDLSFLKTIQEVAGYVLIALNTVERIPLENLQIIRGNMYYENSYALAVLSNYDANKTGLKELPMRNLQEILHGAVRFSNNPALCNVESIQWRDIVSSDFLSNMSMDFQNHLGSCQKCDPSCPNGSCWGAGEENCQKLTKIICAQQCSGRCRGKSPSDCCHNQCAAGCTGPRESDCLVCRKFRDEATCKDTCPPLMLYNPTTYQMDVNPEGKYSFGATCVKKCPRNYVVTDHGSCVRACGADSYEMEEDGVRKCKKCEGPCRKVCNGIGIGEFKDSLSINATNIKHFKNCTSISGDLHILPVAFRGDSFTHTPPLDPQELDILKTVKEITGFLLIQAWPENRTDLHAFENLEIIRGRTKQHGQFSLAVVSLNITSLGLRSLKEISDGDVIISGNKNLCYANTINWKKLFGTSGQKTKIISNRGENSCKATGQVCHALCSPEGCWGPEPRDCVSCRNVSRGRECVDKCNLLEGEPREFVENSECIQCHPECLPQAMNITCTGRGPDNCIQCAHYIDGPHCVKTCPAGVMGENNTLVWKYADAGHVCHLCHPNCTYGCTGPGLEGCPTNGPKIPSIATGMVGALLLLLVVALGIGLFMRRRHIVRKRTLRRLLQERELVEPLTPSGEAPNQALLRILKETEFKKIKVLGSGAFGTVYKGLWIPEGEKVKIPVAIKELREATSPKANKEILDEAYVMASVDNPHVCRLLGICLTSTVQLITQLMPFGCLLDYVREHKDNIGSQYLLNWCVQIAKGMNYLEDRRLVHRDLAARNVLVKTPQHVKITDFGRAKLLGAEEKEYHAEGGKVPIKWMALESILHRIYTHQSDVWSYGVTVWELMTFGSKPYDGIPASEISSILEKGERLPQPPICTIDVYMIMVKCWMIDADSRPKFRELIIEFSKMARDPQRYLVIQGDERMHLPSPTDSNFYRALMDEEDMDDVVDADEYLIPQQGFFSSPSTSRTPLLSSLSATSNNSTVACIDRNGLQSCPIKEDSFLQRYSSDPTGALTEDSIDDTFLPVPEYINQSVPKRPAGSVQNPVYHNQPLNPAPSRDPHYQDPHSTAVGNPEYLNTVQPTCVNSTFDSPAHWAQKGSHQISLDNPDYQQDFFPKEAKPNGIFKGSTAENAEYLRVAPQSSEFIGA
UniProt P00533, 25-1210 T790M/L858R limits assumed: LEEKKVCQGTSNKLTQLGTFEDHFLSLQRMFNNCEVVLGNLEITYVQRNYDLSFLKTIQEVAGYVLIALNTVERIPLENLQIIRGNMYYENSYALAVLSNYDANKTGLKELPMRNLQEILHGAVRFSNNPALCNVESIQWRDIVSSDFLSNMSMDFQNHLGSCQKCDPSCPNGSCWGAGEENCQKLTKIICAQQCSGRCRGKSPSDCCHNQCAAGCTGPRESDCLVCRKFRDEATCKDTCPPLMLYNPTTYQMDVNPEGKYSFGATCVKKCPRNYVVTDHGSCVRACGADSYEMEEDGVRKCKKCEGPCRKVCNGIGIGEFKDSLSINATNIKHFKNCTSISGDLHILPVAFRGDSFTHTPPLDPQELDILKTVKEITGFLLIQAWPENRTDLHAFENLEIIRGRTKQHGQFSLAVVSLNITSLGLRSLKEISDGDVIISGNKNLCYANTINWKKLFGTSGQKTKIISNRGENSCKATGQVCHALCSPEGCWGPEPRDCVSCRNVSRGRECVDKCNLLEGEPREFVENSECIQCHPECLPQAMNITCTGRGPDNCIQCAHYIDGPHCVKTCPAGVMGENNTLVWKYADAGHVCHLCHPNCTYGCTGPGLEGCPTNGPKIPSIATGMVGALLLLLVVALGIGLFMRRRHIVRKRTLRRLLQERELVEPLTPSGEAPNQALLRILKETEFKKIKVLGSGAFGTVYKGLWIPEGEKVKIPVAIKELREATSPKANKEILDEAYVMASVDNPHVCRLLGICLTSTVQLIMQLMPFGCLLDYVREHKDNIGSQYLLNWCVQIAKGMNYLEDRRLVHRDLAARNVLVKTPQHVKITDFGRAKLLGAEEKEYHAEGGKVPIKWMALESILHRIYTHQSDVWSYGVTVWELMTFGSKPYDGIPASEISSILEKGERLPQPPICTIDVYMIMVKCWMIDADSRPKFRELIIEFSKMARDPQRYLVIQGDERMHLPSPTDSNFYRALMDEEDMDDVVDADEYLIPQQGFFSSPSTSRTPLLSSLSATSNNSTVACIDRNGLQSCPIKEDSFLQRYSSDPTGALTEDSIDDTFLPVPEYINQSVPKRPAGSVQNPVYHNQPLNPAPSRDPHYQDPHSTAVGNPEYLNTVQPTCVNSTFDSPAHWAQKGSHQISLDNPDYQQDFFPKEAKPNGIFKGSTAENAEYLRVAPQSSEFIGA
UniProt P00533, 25-1210 T790M/C797S/L858R limits assumed: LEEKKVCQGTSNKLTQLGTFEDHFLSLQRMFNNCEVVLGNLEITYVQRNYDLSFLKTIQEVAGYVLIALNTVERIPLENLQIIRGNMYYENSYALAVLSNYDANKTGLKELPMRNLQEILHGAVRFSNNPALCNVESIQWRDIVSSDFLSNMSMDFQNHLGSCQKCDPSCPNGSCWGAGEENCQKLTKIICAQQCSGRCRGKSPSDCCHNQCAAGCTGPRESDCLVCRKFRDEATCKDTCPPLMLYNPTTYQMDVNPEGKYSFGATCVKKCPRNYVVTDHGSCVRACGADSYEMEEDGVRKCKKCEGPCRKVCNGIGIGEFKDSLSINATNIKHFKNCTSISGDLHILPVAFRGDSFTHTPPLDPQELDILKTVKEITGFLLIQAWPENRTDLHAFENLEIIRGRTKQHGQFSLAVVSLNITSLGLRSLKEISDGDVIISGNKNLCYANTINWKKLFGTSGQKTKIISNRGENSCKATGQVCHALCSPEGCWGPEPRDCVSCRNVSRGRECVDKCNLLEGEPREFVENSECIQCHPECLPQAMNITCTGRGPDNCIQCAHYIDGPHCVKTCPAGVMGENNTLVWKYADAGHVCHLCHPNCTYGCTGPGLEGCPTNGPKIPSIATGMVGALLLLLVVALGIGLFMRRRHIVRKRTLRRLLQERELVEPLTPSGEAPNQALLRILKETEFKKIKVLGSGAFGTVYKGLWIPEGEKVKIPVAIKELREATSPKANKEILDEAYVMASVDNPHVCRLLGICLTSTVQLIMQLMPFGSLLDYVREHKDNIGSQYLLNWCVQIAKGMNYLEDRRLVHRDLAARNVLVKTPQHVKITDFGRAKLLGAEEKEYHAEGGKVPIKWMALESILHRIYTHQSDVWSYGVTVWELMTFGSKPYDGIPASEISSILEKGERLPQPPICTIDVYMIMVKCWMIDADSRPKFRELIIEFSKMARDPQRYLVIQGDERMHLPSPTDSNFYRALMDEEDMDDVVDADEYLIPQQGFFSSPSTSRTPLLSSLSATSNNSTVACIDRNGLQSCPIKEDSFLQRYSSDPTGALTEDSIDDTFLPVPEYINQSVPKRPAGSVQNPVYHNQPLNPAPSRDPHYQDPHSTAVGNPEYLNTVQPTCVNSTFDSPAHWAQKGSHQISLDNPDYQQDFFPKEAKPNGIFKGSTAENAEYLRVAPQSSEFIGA

Structures were worked out from names or drawings and are uncertain.

The target in assay [1] is EGFR T790M/L858R (NCI-H1975 cells) (Homo sapiens, UniProt P00533, L858R/T790M). The assay can be described thus: EGFR (L858R) degradation analysis, Total EGFR (L858R) HTRF, NCI-H1975 cells. As to conditions: read-out: H1975 EGFR DC50, 6 hours. The source says: (§1) NCI-H1975 (harboring EGFR heterozygous T790M/L858R mutations) and NCI-H3255 (harboring EGFR heterozygous L858R mutation) were purchased from ATCC and NCI, respectively. NCI-H1975+CS (harboring EGFR heterozygous T/790M/L858R/C797S mutations) was generated using CRISPR technology to introduce the additional C797S mutation by Horizon Discovery. RPMI 1640 no-phenol red medium and fetal bovine serum (FBS) were purchased from Gibco (Grand Island, NY, USA). Cell culture flasks and 384-well microplates were acquired from VWR (Radnor, PA, USA). Total EGFR (L858R) HTRF assay kits were purchased from Cisbio (Bedford, MA, USA).
(§2) Degradation of EGFR protein containing L858R mutation was determined based on quantification of FRET signal using Total EGFR (L858R) HTRF assay kit. Test compounds were added to the 384-well plate from a top concentration of 10 μM with 11 points, half log titration in duplicates. NCI-H1975, NCI-H1975+CS or NCI-H3255 cells were added into 384-well plates at a cell density of 10000, 10000 or 1000 cells per well, respectively. The plates were kept at 37° C. with 5% CO2 for 6 hours. Cells treated in the absence of the test compound were the negative control. Positive control was set by wells containing all reagents but no cells. FRET signal was acquired on EnVision™ Multilabel Reader (PerkinElmer, Santa Clara, CA, USA).
A general note: In TR-FRET formats the signal depends on donor and acceptor labels being close together.

Assay [2] concerns the target EGFR L858R (NCI-H3255 cells) (Homo sapiens, UniProt P00533, L858R). Kind of assay: EGFR (L858R) degradation analysis, Total EGFR (L858R) HTRF, NCI-H3255 cells. As to conditions: read-out: H3255 EGFR DC50, 6 hours.
Source text: as §1, §2

Assay [3] concerns the target EGFR T790M/L858R/C797S (NCI-H1975+CS cells) (Homo sapiens, UniProt P00533, C797S/L858R/T790M). The assay can be described thus: EGFR (L858R) degradation analysis, Total EGFR (L858R) HTRF, NCI-H1975+CS cells. As to conditions: read-out: H1975 C797S clone EGFR DC50, 6 hours.
Source text: as §1, §2

As for `N#Cc1cc(NC2CCC(=O)NC2=O)ccc1C1CCN(CC(=O)N2CCN(c3ccc(-c4cc(F)c5c(c4)C(=O)N(C(C(=O)Nc4nccs4)c4ncn6c4CCC6)C5)cc3)CC2)CC1` (stereo not drawn), the DC50 stood at 30 nM in assay [1], 8 nM in assay [2] and 24 nM in assay [3].
